Laboratory results as given in patent publication US20160024249A1, “Temperature-Responsive Polymer Compositions and Methods of Use” (Vanderbilt University, priority 2014, published 2016).
Some of these results come from one statement about several compounds together. No end group written: not given here.

System: mouse aortic endothelial cells (mAECs)
Assay: Gene expression by quantitative RT-PCR
Type: cell-based
Settings: 75 mg/mL peptide, 72 h, normalized to GAPDH
Method: Cell Culture: RAW 264.7 macrophages (ATCC) were cultured in DMEM (Gibco) supplemented with 10% FBS and 1% penicillin/strepto-mycin. Mouse aortic endothelial cells (mAECs) were a generous gift from Dr. Ambra Pozzi at Vanderbilt University Medical Center. mAECs were cultured in EGM-2 Basal Media supplemented with BulletKit (Lonza, Allendale, N.J.) and 10 units/mLIFN-g (Sigma). RAW 264.7 mouse macrophage cells (Sigma) were cultured in DMEM with 10% FBS and 1% penicillin/streptomycin. For cell culture studies with peptides, 75 mg/mL of Ac-SDKP or C16 peptides was used. For inhibition studies, 5 mM of MMP-9 inhibitor-1 (CTK8G1150; AG-L-66085, Santa Cruz Biotechnology, Dallas, Tex.) or 5 mg/mL of LEAF Purified Mouse TNF-a antibody (BioLegend) was used.
Gene expression: mAECs or RAW 264.7 cells were seeded at a density of 3×10^5 cells/mL on TCPS with 75 mg/mL of Ac-SDKP, C16, or the combination of C16 and Ac-SDKP peptides. After 3 days, RNA was extracted from […] using Trizol reagent and RNA easy columns. After dissolving RNA in RNase-free water, the concentration and purity of isolated RNA was measured using TECAN plate reader Nanoquant (company info). […] 50 ng/well cDNA was then amplified using SYBR green Supermix and fluorescence signal was measured on a BioRAD real time PCR machine. […] Expression was calculated using the […] and normalized to GAPDH expression (n=8).

Sequence: KAFDITYVRLKF [C16, pro-angiogenic peptide]
- MMP-9 expression, increase compared to no peptide treatment: over 2 fold
